From patent publication US10501518B2 (priority 2013, dated 2019)

Assay: general procedure: Fmoc solid-phase peptide synthesis; NovaPEG rink amide resin (EMD-Millipore); HBTU/HOBt/DIEA
Conditions: whole synthesis, analytical RP-HPLC, relative peak area

SVSEIQLMHNLGKWLNSMERVEWLRKKLQDVHNF-NH2
final HPLC purity: >99%
